The text below walks through data of article PMC10792809.

Results are given in words; binding and its absence hold for the method and conditions named. In cells and extracts the contact can be indirect. Binding can be weak; no strength is given.

This experiment addresses endogenous PLAU (plasminogen activator urokinase) (human (endogenous in A549 and H1299)). As to the kind of experiment: co-IP; endogenous PLAU precipitated with anti-PLAU or IgG from lysates of ARID1A-depleted A549 and H1299 cells; protein A/G agarose beads, 4 °C, 2 h; Western blot. In general terms: A western blot detects proteins with antibodies after separation by electrophoresis.

B1: endogenous TM4SF1 (protein, UniProt P30408 1-202)
chain: MCYGKCARCIGHSLVGLALLCIAANILLYFPNGETKYASENHLSRFVWFFSGIVGGGLLMLLPAFVFIGLEQDDCCGCCGHENCGKRCAMLSSVLAALIGIAGSGYCVIVAALGLAEGPLCLDSLGQWNYTFASTEGQYLLDTSTWSECTEPKHIVEWNVSLFSILLALGGIEFILCLIQVINGVLGGICGFCCSHQQQYDC
B1: the binding entry is “binds”.
